The text below walks through data of doi:10.1101/188995 (bioRxiv, 2018).

Results are given in words; binding and its absence hold for the method and conditions named. Some results given as binding are weak or reduced against the parent protein; the word gives no strength. For some of these results: Where a sequence is shown, tags or fusion partners need not be part of it.

Assay [1] deals with native TasA fibres extracted from B. subtilis (B. subtilis (endogenous)) (UniProt P54507). In words: negative-stain transmission electron microscopy.
In assay [2] the target is monomeric serine-tagged TasA (B. subtilis NCIB3610) (UniProt P54507). As to the kind of experiment: negative-stain transmission electron microscopy.
Assay [3] shares this target. As to the kind of experiment: SEC. In general terms: SEC sorts molecules by how far they enter the pores of the column.
The target of assay [4] is TasA(28-261) with a single phenylalanine added to the N-terminus (B. subtilis NCIB3610) (UniProt P54507). In words: SEC.
Assay [5] concerns the target TasA(28-261) with a single glutamic acid added to the N-terminus (B. subtilis NCIB3610) (UniProt P54507). In words: SEC.
For assay [6], the target named is TasA(28-261) with a single alanine added to the N-terminus (B. subtilis NCIB3610) (UniProt P54507). In words: SEC.
Assay [7] addresses TasA(28-261) with a single lysine added to the N-terminus (B. subtilis NCIB3610) (UniProt P54507). As to the kind of experiment: SEC.

B1: recombinant B. subtilis TasA(28-261), fibre-forming (natural protein, B. subtilis NCIB3610, UniProt P54507 28-261, looked up)
chain: AFNDIKSKDATFASGTLDLSAKENSASVNLSNLKPGDKLTKDFQFENNGSLAIKEVLMALNYGDFKANGGSNTSPEDFLSQFEVTLLTVGKEGGNGYPKNIILDDANLKDLYLMSAKNDAAAAEKIKKQIDPKFLNASGKVNVATIDGKTAPEYDGVPKTPTDFDQVQMEIQFKDDKTKDEKGLMVQNKYQGNSIKLQFSFEATQWNGLTIKKDHTDKDGYVKENEKAHSEDKN
For the molecule B1, in assay [1], the binding entry is recorded as “binds”.

B2: monomeric serine-tagged TasA (protein, UniProt P54507 28-261)
chain: SAFNDIKSKDATFASGTLDLSAKENSASVNLSNLKPGDKLTKDFQFENNGSLAIKEVLMALNYGDFKANGGSNTSPEDFLSQFEVTLLTVGKEGGNGYPKNIILDDANLKDLYLMSAKNDAAAAEKIKKQIDPKFLNASGKVNVATIDGKTAPEYDGVPKTPTDFDQVQMEIQFKDDKTKDEKGLMVQNKYQGNSIKLQFSFEATQWNGLTIKKDHTDKDGYVKENEKAHSEDKN
In the case of B2, the binding result in assay [2] and in assay [3] was “no binding” in each case.

B3: TasA(28-261) with a single phenylalanine added to the N-terminus (protein, UniProt P54507 28-261)
chain: FAFNDIKSKDATFASGTLDLSAKENSASVNLSNLKPGDKLTKDFQFENNGSLAIKEVLMALNYGDFKANGGSNTSPEDFLSQFEVTLLTVGKEGGNGYPKNIILDDANLKDLYLMSAKNDAAAAEKIKKQIDPKFLNASGKVNVATIDGKTAPEYDGVPKTPTDFDQVQMEIQFKDDKTKDEKGLMVQNKYQGNSIKLQFSFEATQWNGLTIKKDHTDKDGYVKENEKAHSEDKN
With B3, the binding result in assay [4] is “no binding”.

B4: TasA(28-261) with a single glutamic acid added to the N-terminus (protein, UniProt P54507 28-261)
chain: EAFNDIKSKDATFASGTLDLSAKENSASVNLSNLKPGDKLTKDFQFENNGSLAIKEVLMALNYGDFKANGGSNTSPEDFLSQFEVTLLTVGKEGGNGYPKNIILDDANLKDLYLMSAKNDAAAAEKIKKQIDPKFLNASGKVNVATIDGKTAPEYDGVPKTPTDFDQVQMEIQFKDDKTKDEKGLMVQNKYQGNSIKLQFSFEATQWNGLTIKKDHTDKDGYVKENEKAHSEDKN
Turning to B4, the binding entry in assay [5] is “no binding”.

B5: TasA(28-261) with a single alanine added to the N-terminus (protein, UniProt P54507 28-261)
chain: AAFNDIKSKDATFASGTLDLSAKENSASVNLSNLKPGDKLTKDFQFENNGSLAIKEVLMALNYGDFKANGGSNTSPEDFLSQFEVTLLTVGKEGGNGYPKNIILDDANLKDLYLMSAKNDAAAAEKIKKQIDPKFLNASGKVNVATIDGKTAPEYDGVPKTPTDFDQVQMEIQFKDDKTKDEKGLMVQNKYQGNSIKLQFSFEATQWNGLTIKKDHTDKDGYVKENEKAHSEDKN
As to B5, the binding result in assay [6] is “no binding”.

B6: TasA(28-261) with a single lysine added to the N-terminus (protein, UniProt P54507 28-261)
chain: KAFNDIKSKDATFASGTLDLSAKENSASVNLSNLKPGDKLTKDFQFENNGSLAIKEVLMALNYGDFKANGGSNTSPEDFLSQFEVTLLTVGKEGGNGYPKNIILDDANLKDLYLMSAKNDAAAAEKIKKQIDPKFLNASGKVNVATIDGKTAPEYDGVPKTPTDFDQVQMEIQFKDDKTKDEKGLMVQNKYQGNSIKLQFSFEATQWNGLTIKKDHTDKDGYVKENEKAHSEDKN
Consider B6, for which, in assay [7], the binding entry is reported as “no binding”.
